The target in one experiment is BRI1-GFP (full-length) (UniProt O22476). Put plainly: condition: only membrane extracts mixed post expression instead of co-expression; co-IP; proteins expressed in separate N. benthamiana leaves and membrane extracts mixed post expression (CCI1 post); IP with anti-GFP, blot with anti-FLAG.
Experiment [1] has as its target T1, CLV2-GFP (full-length) (Arabidopsis) (UniProt O80809).
T1 sequence: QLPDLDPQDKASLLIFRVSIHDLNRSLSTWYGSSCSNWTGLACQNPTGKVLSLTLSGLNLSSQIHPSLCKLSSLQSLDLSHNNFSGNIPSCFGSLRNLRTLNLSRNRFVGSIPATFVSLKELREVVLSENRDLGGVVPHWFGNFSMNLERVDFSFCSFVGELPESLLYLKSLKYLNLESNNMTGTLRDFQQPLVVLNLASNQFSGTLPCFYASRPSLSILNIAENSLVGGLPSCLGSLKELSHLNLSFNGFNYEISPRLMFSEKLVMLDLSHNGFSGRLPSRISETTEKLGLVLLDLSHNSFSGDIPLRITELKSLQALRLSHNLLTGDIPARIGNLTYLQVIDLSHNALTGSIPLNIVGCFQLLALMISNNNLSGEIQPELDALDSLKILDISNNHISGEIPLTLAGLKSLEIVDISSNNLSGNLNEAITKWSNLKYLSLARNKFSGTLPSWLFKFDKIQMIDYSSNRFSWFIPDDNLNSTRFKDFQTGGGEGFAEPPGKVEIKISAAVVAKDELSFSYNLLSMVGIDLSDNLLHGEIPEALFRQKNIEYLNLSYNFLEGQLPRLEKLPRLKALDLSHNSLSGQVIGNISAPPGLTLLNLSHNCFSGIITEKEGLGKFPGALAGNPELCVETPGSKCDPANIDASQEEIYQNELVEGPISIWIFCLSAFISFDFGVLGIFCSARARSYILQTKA
The experiment is described as above.

The chains behind the UniProt entries cited, without tags or fusion partners. Where a name states a change or a piece, a line headed by the entry shows the natural chain unless it says otherwise. Residues count along the entry.
UniProt O22476, residues 24-1196: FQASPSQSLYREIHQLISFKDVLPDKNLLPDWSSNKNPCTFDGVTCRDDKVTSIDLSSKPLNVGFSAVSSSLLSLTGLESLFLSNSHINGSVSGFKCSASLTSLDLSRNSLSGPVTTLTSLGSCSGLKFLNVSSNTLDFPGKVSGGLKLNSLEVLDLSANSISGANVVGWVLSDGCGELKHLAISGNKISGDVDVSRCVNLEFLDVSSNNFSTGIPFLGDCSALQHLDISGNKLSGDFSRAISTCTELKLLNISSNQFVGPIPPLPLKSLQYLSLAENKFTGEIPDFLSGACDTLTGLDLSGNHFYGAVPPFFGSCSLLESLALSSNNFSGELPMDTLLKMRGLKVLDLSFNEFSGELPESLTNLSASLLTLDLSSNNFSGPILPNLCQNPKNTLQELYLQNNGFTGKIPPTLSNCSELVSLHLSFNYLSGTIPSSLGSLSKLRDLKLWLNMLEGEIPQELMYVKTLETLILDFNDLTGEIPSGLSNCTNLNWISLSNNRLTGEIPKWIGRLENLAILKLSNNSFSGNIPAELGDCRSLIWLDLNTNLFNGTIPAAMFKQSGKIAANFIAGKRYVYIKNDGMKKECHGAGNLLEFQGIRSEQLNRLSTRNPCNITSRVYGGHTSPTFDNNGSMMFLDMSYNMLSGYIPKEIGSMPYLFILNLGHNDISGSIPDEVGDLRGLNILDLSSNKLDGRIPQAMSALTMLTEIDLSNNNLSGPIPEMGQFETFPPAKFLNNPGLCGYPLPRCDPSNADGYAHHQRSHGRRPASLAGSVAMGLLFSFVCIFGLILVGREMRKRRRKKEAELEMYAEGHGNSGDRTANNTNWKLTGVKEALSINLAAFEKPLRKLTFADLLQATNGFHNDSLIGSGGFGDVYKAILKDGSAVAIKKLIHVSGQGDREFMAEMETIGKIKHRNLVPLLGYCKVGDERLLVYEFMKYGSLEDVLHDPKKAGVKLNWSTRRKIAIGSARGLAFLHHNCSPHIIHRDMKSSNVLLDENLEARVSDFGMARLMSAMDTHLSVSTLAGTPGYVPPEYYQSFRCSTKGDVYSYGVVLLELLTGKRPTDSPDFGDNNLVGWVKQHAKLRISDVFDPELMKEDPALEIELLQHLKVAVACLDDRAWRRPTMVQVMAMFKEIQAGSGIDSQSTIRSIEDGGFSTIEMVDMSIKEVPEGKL
UniProt Q7DZ57: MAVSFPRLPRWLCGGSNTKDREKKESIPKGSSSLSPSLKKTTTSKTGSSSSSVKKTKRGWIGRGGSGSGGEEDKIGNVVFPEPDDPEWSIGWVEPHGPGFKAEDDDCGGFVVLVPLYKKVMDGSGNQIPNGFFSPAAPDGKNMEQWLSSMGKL

Results are given in words; binding and its absence hold for the method and conditions named. In cells and extracts the contact can be indirect. For some assays here: Sequences can lack the tags named with a protein.

On to CCI1-FLAG (from UniProt Q7DZ57), for which the binding result (in the experiment with BRI1-GFP (full-length); in experiment [1]) was “no binding” each time.
